# Source: publication PMC8230452
# No constants are given. Whether binding was seen depends on the method and setting. Some binding calls cover weakened binding; strength is not graded here.
# B1: Physalis mottle virus (PhMV) virus-like particle, unmodified (assembled coat protein) (complex, UniProt P36351 1-188)
# chain: MDSSEVVKVKQASIPAPGSILSQPNTEQSPAIVLPFQFEATTFGTAETAAQVSLQTADPITKLTAPYRHAQIVECKAILTPTDLAVSNPLTVYLAWVPANSPATPTQILRVYGGQSFVLGGAISAAKTIEVPLNLDSVNRMLKDSVTYTDTPKLLAYSRAPTNPSKIPTASIQISGRIRLSKPMLIAN
# Target: Physalis mottle virus (PhMV) virus-like particle, unmodified (assembled coat protein) (Physalis mottle virus) (UniProt P36351)
# Assay: SEC + other: transmission electron microscopy; purified VLPs in PBS pH 7.4; negatively stained particles by TEM; SEC of native PhMV and the VLP-based vaccines, with and without loaded CpG-ODN 1585; both purified
binder,measurement,value
B1,binding,binds
